# The other results are listed elsewhere or left out.
# Sequences of proteins named here, by UniProt entry; tags and fusion partners are left off. A change or cut given only in a name is not applied to a line headed by its entry.
# UniProt Q6NXR4: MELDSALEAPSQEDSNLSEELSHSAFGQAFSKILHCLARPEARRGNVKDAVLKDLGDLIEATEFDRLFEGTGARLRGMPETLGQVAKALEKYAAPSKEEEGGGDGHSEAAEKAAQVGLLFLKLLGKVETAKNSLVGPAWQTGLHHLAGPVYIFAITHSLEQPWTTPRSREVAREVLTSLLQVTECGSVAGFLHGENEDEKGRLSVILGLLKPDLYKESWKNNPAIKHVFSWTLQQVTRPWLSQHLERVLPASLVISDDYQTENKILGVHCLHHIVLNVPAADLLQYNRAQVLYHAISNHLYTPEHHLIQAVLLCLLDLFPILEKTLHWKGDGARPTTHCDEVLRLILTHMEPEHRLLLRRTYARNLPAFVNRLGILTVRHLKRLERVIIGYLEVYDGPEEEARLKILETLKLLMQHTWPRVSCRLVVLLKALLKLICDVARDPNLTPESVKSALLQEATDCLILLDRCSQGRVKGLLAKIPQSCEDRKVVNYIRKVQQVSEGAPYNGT
# Biological target: TTI2_Q6NXR4_270_ILGVHCLHHIVLNVPAADLLQYNR (UniProt Q6NXR4)
# Test: probe-labelled cysteine peptide fold change vs DMSO (competition) (log2 fold change); higher = less target engagement (more negative = stronger competition)
# Conditions: THP-1, incubation time: 4 h
# 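Note: competitive profiling in live THP-1 cells: cysteine peptides tagged with an iodoacetamide desthiobiotin (IA-DTB) probe, intensity after compound treatment relative to DMSO-treated cells.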
smiles,measurement,setting,value
Cc1cc(C(=O)N2CCCN(C(=O)CCl)CC2)ccc1-c1ccccc1 [compound 10],probe-labelled cysteine peptide fold change,10 µM,0.268
same,probe-labelled cysteine peptide fold change,50 µM,0.174

# Source: the supplement of paper PMC12067093, “Discovery and optimisation of a covalent ligand for TRIM25 and its application to targeted protein ubiquitination” (Chemical Science, 2025)
